The Biogen ADME set (Fang et al. 2023)

Structure (SMILES) | MDR1-MDCK efflux ratio | intrinsic clearance, human liver microsomes [mL/min/kg] | intrinsic clearance, rat liver microsomes [mL/min/kg]
Cc1n[nH]c2c1[C@H](c1ccccc1)C1=C(CC(C)(C)CC1=O)N2 | 115 | 93.3 | 551
Cc1ccc(-c2ccc(F)cc2COc2ccc(CCC(=O)O)cc2)cc1 | – | 27.9 | 198
